Source: PMC7305295
These are yes or no findings as the source states them, for the method shown. In cells and extracts the contact can be indirect. A yes stands for co-enrichment or nearness to the bait. Other partners may have been found.

Chains of the proteins cited; added tags and fusions are not shown.
UniProt Q9NRC8: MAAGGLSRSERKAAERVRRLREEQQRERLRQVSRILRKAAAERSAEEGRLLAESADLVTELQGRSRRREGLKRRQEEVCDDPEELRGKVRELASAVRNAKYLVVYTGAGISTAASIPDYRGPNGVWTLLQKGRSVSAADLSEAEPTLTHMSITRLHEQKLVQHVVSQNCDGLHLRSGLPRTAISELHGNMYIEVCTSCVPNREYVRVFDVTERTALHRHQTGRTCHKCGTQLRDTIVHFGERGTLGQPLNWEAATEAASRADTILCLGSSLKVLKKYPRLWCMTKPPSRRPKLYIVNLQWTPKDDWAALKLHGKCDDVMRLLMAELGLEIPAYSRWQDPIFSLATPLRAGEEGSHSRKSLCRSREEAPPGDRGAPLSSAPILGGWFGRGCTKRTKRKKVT
UniProt Q13263: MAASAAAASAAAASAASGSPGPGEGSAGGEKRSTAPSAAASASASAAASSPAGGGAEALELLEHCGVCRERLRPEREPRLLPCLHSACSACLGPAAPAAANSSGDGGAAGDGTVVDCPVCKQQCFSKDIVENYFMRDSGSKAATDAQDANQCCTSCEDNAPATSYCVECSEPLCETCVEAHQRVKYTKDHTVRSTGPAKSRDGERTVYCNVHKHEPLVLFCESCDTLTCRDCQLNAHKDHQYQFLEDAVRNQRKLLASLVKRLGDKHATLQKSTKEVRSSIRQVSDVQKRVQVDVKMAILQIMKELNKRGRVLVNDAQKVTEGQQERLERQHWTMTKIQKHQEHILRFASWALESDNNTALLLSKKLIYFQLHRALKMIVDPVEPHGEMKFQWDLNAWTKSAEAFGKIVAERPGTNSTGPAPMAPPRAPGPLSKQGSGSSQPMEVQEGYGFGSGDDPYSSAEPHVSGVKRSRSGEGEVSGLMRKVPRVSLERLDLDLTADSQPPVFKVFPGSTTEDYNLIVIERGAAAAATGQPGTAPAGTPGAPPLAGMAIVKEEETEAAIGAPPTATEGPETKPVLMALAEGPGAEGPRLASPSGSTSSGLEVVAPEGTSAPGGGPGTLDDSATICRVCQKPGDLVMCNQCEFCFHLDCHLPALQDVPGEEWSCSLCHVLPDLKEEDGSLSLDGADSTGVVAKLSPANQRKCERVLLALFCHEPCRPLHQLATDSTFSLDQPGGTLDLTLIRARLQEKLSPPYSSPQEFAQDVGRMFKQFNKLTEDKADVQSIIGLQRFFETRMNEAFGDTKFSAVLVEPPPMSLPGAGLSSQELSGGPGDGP
UniProt Q14739: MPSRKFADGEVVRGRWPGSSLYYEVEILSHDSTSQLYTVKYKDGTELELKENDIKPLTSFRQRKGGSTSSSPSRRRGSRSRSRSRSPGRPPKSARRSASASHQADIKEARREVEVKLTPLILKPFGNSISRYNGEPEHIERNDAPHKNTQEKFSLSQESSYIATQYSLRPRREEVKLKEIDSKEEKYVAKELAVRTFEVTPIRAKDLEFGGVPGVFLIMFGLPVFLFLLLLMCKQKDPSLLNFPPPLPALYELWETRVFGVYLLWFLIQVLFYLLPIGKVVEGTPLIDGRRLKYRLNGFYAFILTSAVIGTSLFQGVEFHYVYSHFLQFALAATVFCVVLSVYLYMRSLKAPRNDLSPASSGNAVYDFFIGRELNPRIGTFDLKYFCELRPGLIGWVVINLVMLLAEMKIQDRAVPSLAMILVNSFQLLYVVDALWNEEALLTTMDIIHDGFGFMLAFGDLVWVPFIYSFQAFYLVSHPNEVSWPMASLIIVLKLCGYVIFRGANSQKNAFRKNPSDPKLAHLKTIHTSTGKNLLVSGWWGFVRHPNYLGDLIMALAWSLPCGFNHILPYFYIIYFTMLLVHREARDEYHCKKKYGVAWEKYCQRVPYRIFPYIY

Molecular target: Flag-tagged SIRT7 (UniProt Q9NRC8)
Assay: affinity purification with mass spectrometry; Flag-SIRT7 expressed in HEK293T cells, IP with anti-Flag antibody, eluates separated by SDS-PAGE, bands analysed by LC-MS/MS; Flag-Luc as control

binding	Molecule
binds	heterochromatin protein KAP1 (from UniProt Q13263 1-835)
binds	nuclear lamina protein LBR (from UniProt Q14739 1-615)
binds	fibrillarin (FBL) (protein, UniProt P22087 1-321) MKPGFSPRGGGFGGRGGFGDRGGRGGRGGFGGGRGRGGGFRGRGRGGGGGGGGGGGGGRGGGGFHSGGNRGRGRGGKRGNQSGKNVMVEPHRHEGVFICRGKEDALVTKNLVPGESVYGEKRVSISEGDDKIEYRAWNPFRSKLAAAILGGVDQIHIKPGAKVLYLGAASGTTVSHVSDIVGPDGLVYAVEFSHRSGRDLINLAKKRTNIIPVIEDARHPHKYRMLIAMVDVIFADVAQPDQTRIVALNAHTFLRNGGHFVISIKANCIDSTASAEAVFASEVKKMQQENMKPQEQLTLEPYERDHAVVVGVYRPPPKVKN
